Results from publication PMC3738441.

By UniProt entry, the sequences of proteins in these tests, tags left out. Where a name states a change or a piece, a line headed by the entry shows the natural chain unless it says otherwise.
UniProt O94656: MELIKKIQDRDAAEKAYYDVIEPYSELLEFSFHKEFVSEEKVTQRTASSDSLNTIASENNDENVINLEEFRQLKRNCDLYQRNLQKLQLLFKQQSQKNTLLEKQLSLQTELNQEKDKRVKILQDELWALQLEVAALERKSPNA

Target: Atg16-YFP (S. pombe) (UniProt O94656)
Assay: co-IP; S. pombe cell lysates made by glass bead beating; GFP-trap or RFP-trap agarose beads to precipitate YFP- or mCherry-tagged proteins; Atg5-Atg16 tested in wild-type, atg12Δ and atg18aΔ cells

binding: binds
B1: Atg5-Myc (protein, UniProt O74971 1-261)
chain: MNVDNNKGNIPELLWNGTISVRIDYEGNSLAYLANVPRQSYFAQILPNVQRLLAPSIPLSECWLDYNGVPLKWHWPVGLLFDLLTVFDPDTPRAPVLWRIQLRSGLFPTTKILQMETMDTFRTYFFNCLKESDYVRNGSSSGIIALSKAETDTYWNAILNHDYYDFRPIAIKILFSKSKFIPLKIYLGANAPIIQTSAPLGSSLGEFLNKRLPDLFPSCDKFLIVKPVIHGITIFLQSVLDELNRDFCYIDGFLHIVLMKV

No constants are given. Whether binding was seen depends on the method and setting. Binding seen in cells or lysates may run through a third protein. A result given as binding can be weak or reduced; the word gives no strength. Tags and fused reporters may be left off the sequences shown.
